Measurements reported in PubChem BioAssay AID1259405 (NCATS, 2018)
The whole screen tested about 50,000 reagents; below is a part drawn at random. About 4,000 of them (8%) count as active. 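Mouse siRNA library applied to hamster cells; one well for each siRNA.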 A number with no mark means an inactive call. The numbers tell different reagents against one gene apart.

- Screen: 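Silenced genes that increase secreted GFP made by CHO cells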 (primary screen)
- System: Chinese hamster CHO-K1 ovary cells with stable secreted eGFP expression
- Reagent: single siRNA against mouse genes, 0.8 pmol siRNA per well (2 µl of 400 nM stock)
- Duration: 3 days
- Read-out: 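Percent of the per-plate non-targeting control median for intracellular GFP per well by laser scanning cytometry and for cell viability by ATP luminescence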
- Reading the numbers: GFP, % of control: higher = more GFP per well, higher productivity; viability (ATP), % of control: higher = more viable cells (more ATP)
- Call rule: 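a knock-down is called active if GFP reaches 120% or more of non-targeting control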

| gene symbol | reagent | GFP, % of control | viability (ATP), % of control |
| --- | --- | --- | --- |
| Lims1 | 1 | 101 | 78.4 |
| Lims1 | 2 | 64.3 | 64 |
| Mycbpap | 1 | 42 | 57.7 |
| Mycbpap | 2 | 41 | 65.5 |
| Mycbpap | 3 | 61.4 | 59.4 |
| Ttc4 | 1 | 39.4 | 49.6 |
| Ttc4 | 2 | 75 | 46.7 |
| Ttc4 | 3 | 100 | 68.4 |
| Atox1 | 1 | 104 | 58.2 |
| Atox1 | 2 | 61.7 | 68.7 |
| Atox1 | 3 | 49.6 | 37.8 |
| Slc7a5 | 1 | 77.4 | 41.5 |
| Slc7a5 | 2 | 45.9 | 32.7 |
| Slc7a5 | 3 | 96.7 | 77.3 |
| Noazfp | 1 | 74.1 | 49.3 |
| Noazfp | 2 | 73.2 | 71.1 |
| Noazfp | 3 | 89.2 | 107 |
| Aipl1 | 1 | 81 | 77.2 |
| Aipl1 | 2 | 112 | 61.2 |
| Aipl1 | 3 | 64.9 | 79.6 |
| Slc9a2 | 1 | 68 | 72.3 |
| Slc9a2 | 2 | 63.9 | 38.8 |
| Slc9a2 | 3 | 85.4 | 88.7 |
| Ubl7 | 1 | 124 (active) | 82.9 |
| Ubl7 | 2 | 143 (active) | 74.5 |
| Ubl7 | 3 | 80.3 | 101 |
| Mcoln2 | 1 | 105 | 26 |
| Mcoln2 | 2 | 70.7 | 46.2 |
| Mcoln2 | 3 | 58.5 | 89.6 |
| Vapb | 1 | 111 | 116 |
| Vapb | 2 | 77.4 | 98.9 |
| Paip2 | 1 | 51.6 | 78.1 |
| Paip2 | 2 | 61.7 | 73.3 |
| Paip2 | 3 | 56.1 | 110 |
| Zfp395 | 1 | 100 | 76.6 |
| Zfp395 | 2 | 53.2 | 66 |
| Zfp395 | 3 | 80.2 | 56.4 |
| Faah | 1 | 75.4 | 70.6 |
| Faah | 2 | 66.4 | 65.7 |
| Faah | 3 | 44 | 63.6 |
| Pidd1 | 1 | 53.2 | 62.9 |
| Pidd1 | 2 | 136 (active) | 51.6 |
| Pidd1 | 3 | 138 (active) | 56 |
| Gadd45b | 1 | 57.6 | 98.4 |
| Gadd45b | 2 | 50.2 | 75 |
| Gadd45b | 3 | 81.2 | 94.4 |
| Ankrd33 | 1 | 66.3 | 49.8 |
| Ankrd33 | 2 | 95.9 | 32.8 |
| Ankrd33 | 3 | 91.9 | 70.1 |
| Or2a7 | 1 | 24.9 | 23.2 |
| Or2a7 | 2 | 78.8 | 78.8 |
| Or2a7 | 3 | 45.6 | 45.7 |
| Dsc3 | 1 | 71.6 | 63.4 |
| Dsc3 | 2 | 84.3 | 79.7 |
| Mgst1 | 1 | 96.9 | 77.4 |
| Mgst1 | 2 | 178 (active) | 116 |
| Tekt1 | 1 | 45.4 | 41.5 |
| Tekt1 | 2 | 66.6 | 83.9 |
| Ms4a4c | 1 | 122 (active) | 98.3 |
| Ms4a4c | 2 | 85.9 | 50.4 |
| Ms4a4c | 3 | 124 (active) | 119 |
| Trim25 | 1 | 84.5 | 82.9 |
| Trim25 | 2 | 128 (active) | 101 |
| Trim25 | 3 | 98.4 | 117 |
| Otud6b | 1 | 99.8 | 69.2 |
| Otud6b | 2 | 68.3 | 59.2 |
| Otud6b | 3 | 79 | 60.4 |
| Gstm6 | 1 | 185 (active) | 111 |
| Gstm6 | 2 | 82.8 | 100 |
| Gstm6 | 3 | 50 | 55.2 |
| Carnmt1 | 1 | 71.7 | 72.6 |
| Carnmt1 | 2 | 69.1 | 49.4 |
| Carnmt1 | 3 | 80.5 | 81.9 |
| Plekhm1 | 1 | 41.1 | 42.9 |
| Plekhm1 | 2 | 89.1 | 84.6 |
| Plekhm1 | 3 | 49.4 | 67 |
| Lyz1 | 1 | 80.7 | 76.9 |
| Lyz1 | 2 | 71.1 | 80.7 |
| Lyz1 | 3 | 93.4 | 78.7 |
| Eqtn | 1 | 65.2 | 84.7 |
| Eqtn | 2 | 115 | 65.8 |
| Eqtn | 3 | 119 | 123 |
| Bnip1 | 1 | 107 | 93.7 |
| Bnip1 | 2 | 86.4 | 91.9 |
| Dapl1 | 1 | 114 | 64 |
| Dapl1 | 2 | 27.5 | 26 |
| Dapl1 | 3 | 80 | 93.4 |
| Gtf2h4 | 1 | 56.5 | 52.9 |
| Gtf2h4 | 2 | 24.7 | 28.9 |
| Gtf2h4 | 3 | 87.8 | 79.8 |
| Dap | 1 | 90.8 | 65.3 |
| Dap | 2 | 75.8 | 87.7 |
| Dap | 3 | 69.3 | 49.3 |
| Dll1 | 1 | 115 | 84.1 |
| Dll1 | 2 | 119 | 66 |
| Dll1 | 3 | 64.5 | 57.4 |
| Arf6 | 1 | 115 | 87.1 |
| Arf6 | 2 | 77.5 | 47.6 |
| Arf6 | 3 | 85.8 | 92 |
| Hltf | 1 | 96.8 | 95.3 |
| Hltf | 2 | 73 | 84.3 |
| Hltf | 3 | 77.9 | 67.2 |
| Sptlc3 | 1 | 80.9 | 88.4 |
| Sptlc3 | 2 | 62.2 | 97.2 |
| Sptlc3 | 3 | 77.6 | 72.2 |
| Sv2a | 1 | 111 | 81.7 |
| Sv2a | 2 | 98.3 | 95.7 |
| Sv2a | 3 | 75.5 | 88.5 |
